From publication PMC8493742
These are yes or no findings as the source states them, for the method shown. Binding seen in cells or lysates may run through a third protein.

Chains of the proteins cited; added tags and fusions are not shown. Lines headed by an entry give the natural chain unless they say otherwise; changes in a name come on top.
UniProt Q13887: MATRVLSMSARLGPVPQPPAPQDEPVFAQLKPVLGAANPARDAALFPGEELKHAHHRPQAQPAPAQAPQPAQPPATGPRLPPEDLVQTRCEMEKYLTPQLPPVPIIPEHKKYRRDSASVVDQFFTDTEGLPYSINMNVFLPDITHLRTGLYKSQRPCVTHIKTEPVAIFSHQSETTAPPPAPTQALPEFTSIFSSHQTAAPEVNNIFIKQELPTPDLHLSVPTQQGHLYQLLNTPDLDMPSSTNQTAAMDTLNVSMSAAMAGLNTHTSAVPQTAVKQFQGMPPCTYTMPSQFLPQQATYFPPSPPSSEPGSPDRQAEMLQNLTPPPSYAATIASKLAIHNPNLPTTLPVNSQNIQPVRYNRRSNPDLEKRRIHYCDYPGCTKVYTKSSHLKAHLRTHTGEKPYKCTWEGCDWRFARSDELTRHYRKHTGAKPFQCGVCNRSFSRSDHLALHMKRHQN
UniProt P06748: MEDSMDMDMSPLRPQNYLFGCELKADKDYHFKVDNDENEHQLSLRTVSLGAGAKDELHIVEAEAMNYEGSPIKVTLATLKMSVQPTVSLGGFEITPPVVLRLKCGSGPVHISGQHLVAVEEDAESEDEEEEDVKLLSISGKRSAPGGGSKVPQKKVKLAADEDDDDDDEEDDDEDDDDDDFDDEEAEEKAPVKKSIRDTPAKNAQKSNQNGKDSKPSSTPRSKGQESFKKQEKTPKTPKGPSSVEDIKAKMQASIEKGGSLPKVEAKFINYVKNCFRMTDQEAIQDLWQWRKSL

Target: Kruppel-like factor 5 (KLF5) (human (endogenous in OCI-AML3)) (UniProt Q13887)
Assay: co-IP; endogenous proteins in sonicated cell lysates in IP buffer (20 mM Tris-Cl, 150 mM NaCl, 1 mM EDTA, 1 mM EGTA, 1% Triton X-100, pH 7.5); specific antibodies or normal IgG with protein A/G beads overnight at 4 °C; western blot; also in cells with shNPM1, shHOTAIRM1 or HOTAIRM1 overexpression

binding: no binding
Substance: NPM1 mutation type A (mutant nucleophosmin) (from UniProt P06748)
